The values below come from patent US8394828B2 (Janssen Pharmaceutica, NV, priority 2003, dated 2013).

Protein sequences, listed by entry. Tags and fused reporters are not part of them.
UniProt Q8NER1, whole entry: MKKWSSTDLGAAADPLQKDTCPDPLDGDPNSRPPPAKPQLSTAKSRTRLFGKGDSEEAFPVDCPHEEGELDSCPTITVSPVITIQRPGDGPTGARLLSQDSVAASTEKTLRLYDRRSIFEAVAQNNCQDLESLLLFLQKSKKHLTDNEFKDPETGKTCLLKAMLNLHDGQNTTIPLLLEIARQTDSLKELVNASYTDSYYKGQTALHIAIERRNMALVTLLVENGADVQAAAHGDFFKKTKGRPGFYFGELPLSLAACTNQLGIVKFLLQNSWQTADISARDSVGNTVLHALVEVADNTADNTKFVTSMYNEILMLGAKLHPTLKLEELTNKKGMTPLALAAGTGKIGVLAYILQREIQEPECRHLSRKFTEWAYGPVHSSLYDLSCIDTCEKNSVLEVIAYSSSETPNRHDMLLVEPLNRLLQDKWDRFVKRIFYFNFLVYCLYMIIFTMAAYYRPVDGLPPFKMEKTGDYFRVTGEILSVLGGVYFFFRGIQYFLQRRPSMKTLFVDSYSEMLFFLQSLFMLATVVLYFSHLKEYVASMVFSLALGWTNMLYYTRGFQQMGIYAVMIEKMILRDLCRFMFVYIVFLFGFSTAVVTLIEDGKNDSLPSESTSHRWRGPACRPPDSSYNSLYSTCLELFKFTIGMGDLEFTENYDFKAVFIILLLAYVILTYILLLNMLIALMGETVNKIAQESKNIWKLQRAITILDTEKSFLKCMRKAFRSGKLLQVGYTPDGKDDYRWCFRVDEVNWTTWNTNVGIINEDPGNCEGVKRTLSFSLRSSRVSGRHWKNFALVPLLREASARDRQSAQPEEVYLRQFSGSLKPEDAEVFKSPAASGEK

Structures were worked out from names or drawings and are uncertain.

The target in assay [1] is T1, human VR1 (Homo sapiens, UniProt Q8NER1). Description: Human VR1 [3H] RTX binding assay. Particulars: read-out: 3H-RTX binding assay Ki hVR1.
For assay [2], the target named is T1, human VR1. The assay can be described thus: Human VR1 functional assay (intracellular Ca++, FLIPR, capsaicin challenge). Format: cell-based. Particulars: read-out: FLIPR functional assay IC50 hVR1.

For the compound `CCCCC(C)(C)c1ccc(CCC(=O)Nc2cnc3ccccc3c2)cc1`, the inhibition constant (Ki) on human VR1 [1] was 40.3 nM. In addition, the IC50 on human VR1 [2] is 114 nM.
